Test results reported in patent US20170306005A1 (NASCIENT, published 2017).

Tests used:
[1] = molecular target: FIBRINOGEN (Kennedy Institute of Rheumatology); experiment: condition: 500 ng of target per lane; antibody 0.25 ug/ml; western blot, 10% SDS-PAGE under reducing conditions, nitrocellulose; B12 IgG4 MAb 1:20,000 overnight at 4 C; 5 min exposure
[2] = molecular target: FIBRINOGEN (Kennedy Institute of Rheumatology); experiment: western blot, reducing SDS-PAGE

binding [1]: no binding
binding [2]: no binding (tested: 0.25 ug/ml)
B1: B12 human IgG4 (antibody, V domains shown)
VH: QVQLVESGGGLVQPGRSLRLSCAASGFTFDDYAMHWVRQAPGKGLEWVSGISGSGGSTYYADSVKGRFTISRDNAKNSLYLQMNSLRAEDTALYYCAKDISAVPDTFDIWGQGTMVTVSS
VL: DIQMTQSPASLPTPVGDRVTITCRASQYIQGFLNWYQQKPGKAPKLLIYDASNLETGVPSRFSGSGSGTDFTLTISSLQPEDFATYYCQQSYSTPQTFGQGTKVDIKR
notes: human IgG4 with hinge S241P; also called B12 parent; B12-hIgG4

These are yes or no findings as the source states them, for the method shown.
